Measured data: PubChem BioAssay AID1259308 (NCATS, 2017)

- Assay: 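Knock-downs that increase output of a recombinant reporter protein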 (primary screen)
- System: human HEK293 embryonic kidney cells stably expressing firefly luciferase (HEK-CMV-Luc2-Hygro)
- Reagent: single siRNA against human genes, 0.8 pmol siRNA per well
- Duration: 72 h
- Measurement: 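Luciferase light (ONE-Glo) measured on one replicate plate set and viability (CellTiter-Glo) on the other, scaled to a negative control siRNA, with robust z-scores and luciferase per cell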
- Reading the numbers: total luciferase, z-score: higher = more reporter protein produced
- Hit rule: 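Active when the median/MAD z-score for overall luciferase is greater than 3; a gene was taken forward for validation with new siRNAs if at least two of its three siRNAs passed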
- Calls: active = raised luciferase; inactive = no rise
In all, the deposit lists about 59,000 reagents; shown is a random part of them. Over the whole deposit, about 1,510 (2.6%) were called active. 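Calls use total luciferase alone and ignore viability, so some active siRNAs may act by altering cell number.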 Unmarked entries are inactive. The numbers tell different reagents against one gene apart. Not all columns of the deposit are shown. No sequences are given here.

{"gene": "LINC00927 (GeneID 283688)", "reagent": 1, "total luciferase, z-score": -0.744}
{"gene": "LINC00927 (GeneID 283688)", "reagent": 2, "total luciferase, z-score": -0.587}
{"gene": "LINC00927 (GeneID 283688)", "reagent": 3, "total luciferase, z-score": 0.562}
{"gene": "DNAJC11 (GeneID 55735)", "reagent": 1, "total luciferase, z-score": 0.615}
{"gene": "DNAJC11 (GeneID 55735)", "reagent": 2, "total luciferase, z-score": 0.371}
{"gene": "DNAJC11 (GeneID 55735)", "reagent": 3, "total luciferase, z-score": -0.217}
{"gene": "TSBP1 (GeneID 10665)", "reagent": 1, "total luciferase, z-score": 1.08}
{"gene": "TSBP1 (GeneID 10665)", "reagent": 2, "total luciferase, z-score": -0.0132}
{"gene": "TSBP1 (GeneID 10665)", "reagent": 3, "total luciferase, z-score": 0.381}
{"gene": "PSD4 (GeneID 23550)", "reagent": 1, "total luciferase, z-score": -0.444}
{"gene": "PSD4 (GeneID 23550)", "reagent": 2, "total luciferase, z-score": 0.317}
{"gene": "PSD4 (GeneID 23550)", "reagent": 3, "total luciferase, z-score": 0.867}

2 entries already listed, ordered by “total luciferase, z-score”, descending.
{"gene": "PSD4 (GeneID 23550)", "reagent": 2, "total luciferase, z-score": 0.317}
{"gene": "PSD4 (GeneID 23550)", "reagent": 1, "total luciferase, z-score": -0.444}

Continued.
{"gene": "SLC23A1 (GeneID 9963)", "reagent": 1, "total luciferase, z-score": 0.514}
{"gene": "SLC23A1 (GeneID 9963)", "reagent": 2, "total luciferase, z-score": -0.337}
{"gene": "SLC23A1 (GeneID 9963)", "reagent": 3, "total luciferase, z-score": 1.3}
{"gene": "APOL6 (GeneID 80830)", "reagent": 1, "total luciferase, z-score": -1.44}
{"gene": "APOL6 (GeneID 80830)", "reagent": 2, "total luciferase, z-score": 2.75}
{"gene": "APOL6 (GeneID 80830)", "reagent": 3, "total luciferase, z-score": -0.882}
{"gene": "MYT1L-AS1 (GeneID 730811)", "reagent": 1, "total luciferase, z-score": -0.128}
{"gene": "MYT1L-AS1 (GeneID 730811)", "reagent": 2, "total luciferase, z-score": 0.644}
{"gene": "MYT1L-AS1 (GeneID 730811)", "reagent": 3, "total luciferase, z-score": -1.25}
